# Experimental data reported in PubChem BioAssay AID504444 (National Center for Advancing Translational Sciences (NCATS), 2011).
# About 7,500 (2.1%) of roughly 360,000 compounds were called active. The inconclusive results got no clear call from the source; some entries with a clear call stand among them for comparison. Calls follow the shape of the dose curve; as a rule, active = well fitted inhibition curve with a large enough effect; inconclusive = small, poorly fitted or top-dose-only effect, or effect the other way; inactive = flat fitted curve, though single readings scatter. Potencies beside an inconclusive call are fits to weak or partial responses and may not hold up.
# Test: Nrf2 qHTS screen for inhibitors; also: nearly all actives have a fitted effect of over 60% in size
# Conditions: A549 ARE-Fluc reporter, luciferase luminescence, 18-24 h; series mostly up to 46 µM
# Method in brief: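 Quantitative HTS in A549 cells stably bearing an antioxidant response element-firefly luciferase construct. Inhibition of Nrf2-driven transcription was scored by luminescence after 18-24 h of compound exposure at 37 °C.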
# Potency is read from the fitted curve at half-maximal effect.
row,Structure (SMILES),Potency
1,Cc1cccnc1NC(=O)c1ccc2nc(N)sc2c1,"inconclusive: 23.1 µM [activator, partial curve]"
2,CC(C)c1ccc(NC(=O)C2CCN(S(=O)(=O)c3ccc(Br)s3)CC2)cc1,inactive
3,CCOc1ccccc1C(=O)Nc1ccccc1-c1ccccc1,inactive
4,CN(Cc1ccco1)c1ncnc2ccc(-c3ccccc3Cl)cc12,"inconclusive: 18.4 µM [falling, single point]"
5,O=C(O)C(C1CCCCC1)C1(O)CCCC1 (configuration not stated),inactive
6,NS(=O)(=O)c1ccc(CCNC(=O)C2Cc3ccccc3CN2C(=O)c2ccco2)cc1 (configuration not stated),"inconclusive: 23.1 µM [falling, partial curve, poor fit]"
7,COc1ccc(/C=C2\SC(N)=NC2=O)cc1,"inconclusive: 4.11 µM [activator, full curve]"
8,CC(=O)n1cc([C@H]2C=C(C(=O)N3CCN(Cc4ccc5c(c4)OCO5)CC3)O[C@@H](OCc3ccc(CO)cc3)C2)c2ccccc21,"inconclusive: 16.4 µM [falling, single point]"
9,CC(=O)OCC(=O)C1(O)CCC2C3CCC4=CC(=O)C=CC4(C)C3C(O)CC21C (configuration not stated),active: 0.0291 µM
10,COC(=O)N1N=C(c2ccc(Br)cc2)CC1(O)C(F)(F)F (configuration not stated),"inconclusive: 11.6 µM [activator, partial curve, poor fit]"
11,S=c1nc(-c2ccccc2)oc2c1CCCC2,"inconclusive: 18.4 µM [activator, partial curve]"
12,O=S(=O)(c1cccc(-c2csc(N/N=C/c3ccco3)n2)c1)N1CCOCC1,"inconclusive: 25.9 µM [falling, single point]"
13,COc1cccc(-c2cc(C(F)(F)F)nc(N3CCC(C)CC3)n2)c1,"inconclusive: 3.66 µM [activator, full curve, poor fit]"
14,COc1cc2c(cc1OC)C(=S)NC(C)(C)C2,"inconclusive: 2.91 µM [falling, full curve]"
15,c1ccc(CCNc2ccc3nncn3n2)cc1,"inconclusive: 1.3 µM [falling, partial curve]"
16,O=C(c1ccco1)N1CCN(C(c2ccccc2F)c2nnnn2Cc2cccs2)CC1 (configuration not stated),"inconclusive: 6.51 µM [activator, single point]"
17,CCc1cccc(C)c1NC(=O)C1CCN(c2nnc(C)c3c(C)n(-c4ccccc4)nc23)CC1,"inconclusive: 4.61 µM [activator, full curve, poor fit]"
18,Cc1cn2c(N)c(C=C3C=C(Cl)C(=O)C(Cl)=C3)c(=O)nc2s1,"inconclusive: 14.6 µM [falling, partial curve, poor fit]"
19,COC(=O)C1CC23C=CCN4CCC5(c6ccccc6NC15C2C)C43 (configuration not stated),"inconclusive: 3.66 µM [activator, full curve]"
20,CC(C)Cc1nnc(NC(=O)CCC(=O)N2CCN(c3ccccn3)CC2)s1,inactive
21,Cc1cc(C)c2c(c1)C1C=CCC1C(C(=O)O)N2 (configuration not stated),inactive

# 3 compounds already listed, ordered by number of heavy atoms, ascending:
row,Structure (SMILES),Potency
15,c1ccc(CCNc2ccc3nncn3n2)cc1,"inconclusive: 1.3 µM [falling, partial curve]"
1,Cc1cccnc1NC(=O)c1ccc2nc(N)sc2c1,"inconclusive: 23.1 µM [activator, partial curve]"
16,O=C(c1ccco1)N1CCN(C(c2ccccc2F)c2nnnn2Cc2cccs2)CC1 (configuration not stated),"inconclusive: 6.51 µM [activator, single point]"

# The results go on.

row,Structure (SMILES),Potency
1,Cc1cc(OCC(=O)N2CCC(O)(c3ccc(Cl)cc3)CC2)c2c(C)cc(=O)oc2c1,"inconclusive: 32.6 µM [falling, partial curve, poor fit]"
2,Cc1csc(NC(=O)CNS(=O)(=O)c2cccs2)n1,"inconclusive: 18.4 µM [falling, single point]"
3,Cc1ccc(-c2nnc(N3CCN(C(=O)COc4cccc(C)c4)CC3)c3ccccc23)cc1,"inconclusive: 29.1 µM [falling, single point]"
4,COc1cc2c(c(OC)c1OC)-c1ccc(SC)c(=O)cc1C(NC(=O)c1ccccc1)CC2 (configuration not stated),"inconclusive: 0.0206 µM [activator, full curve, poor fit]"
5,COc1cc(C(=S)N2CCOCC2)cc(OC)c1OC(=O)c1cccc(C)c1,"inconclusive: 25.9 µM [falling, single point]"
6,CC(=O)c1ccc(Nc2nc(C)cc(C)n2)cc1,"inconclusive: 11.6 µM [activator, partial curve, poor fit]"
7,COc1cccc(NC(=O)CCSc2nc(-c3ccco3)cc(C(F)(F)F)n2)c1,"inconclusive: 18.4 µM [falling, single point]"
8,C/C(=N\NC(=O)c1cc(C(C)C)[nH]n1)c1ccncc1,"inconclusive: 23.1 µM [activator, single point]"
9,CCc1ccc(NC(=O)c2cnc(N3CCN(c4ccccn4)CC3)c3ccccc23)cc1,active: 11.6 µM
10,COc1ccc(CCN(C)C2CCCN(S(=O)(=O)c3ccccc3F)C2)cc1OC (configuration not stated),"inconclusive: 0.731 µM [falling, full curve, poor fit]"
11,CCC(C)C1Nc2ccc(C(=O)NCc3ccc4c(c3)OCO4)cc2NC1=O (configuration not stated),"inconclusive: 6.51 µM [falling, full curve]"
12,O=C(CSc1nc(-c2ccccc2)ns1)N1CCOCC1,"inconclusive: 8.2 µM [activator, single point]"
13,COc1ccc(-c2noc(N3CCN(c4ccc(Cl)cc4)CC3)n2)cc1OC,"inconclusive: 32.6 µM [falling, single point]"
14,CCOc1ccccc1NC(=O)C(=O)c1cc(C)n(-c2cccc(C)c2C)c1C,inactive
15,O=C(Nc1cccc(C(=O)N2CCCCC2)c1)C1CC1,inactive
16,CC1=NN(c2ccccc2)C(=O)C1C(=O)c1ccc(Cl)cc1 (configuration not stated),active: 18.4 µM
17,Cc1cc([N+](=O)[O-])ccc1N1C(=O)c2ccc(C(=O)Nc3ccccc3C(=O)O)cc2C1=O,inactive
18,Cc1noc(C(F)(F)F)c1C(=O)NNC(=O)c1cccc(C(F)(F)F)c1,"inconclusive: 0.411 µM [falling, full curve, poor fit]"
19,Cn1c(N)c(C(=O)COC(=O)C2(c3ccccc3F)CCCC2)c(=O)n(C)c1=O,"inconclusive: 25.9 µM [falling, partial curve, poor fit]"
20,O=C(CN1CCN(c2ccccn2)CC1)Nc1cccc(S(=O)(=O)N2CCCC2)c1,active: 11.6 µM
21,COc1ccc(NC(=O)C2CCCN(S(=O)(=O)c3cccs3)C2)cc1OC (configuration not stated),"inconclusive: 0.651 µM [falling, full curve, poor fit]"
